# According to US20180265707A1, “DICHROIC DYE COMPOUND, DICHROIC DYE COMPOSITION, LIGHT-ABSORBING ANISOTROPIC FILM, POLARIZING ELEMENT, AND IMAGE DISPLAY DEVICE” (FUJIFILM Corporation, priority 2015, published 2018):
# At least one read-out could not be matched to a standard name with certainty.
# Experiment: Solubility in cyclopentanone
# Assay type: physicochemical
# Settings: compared to Compound (8)
# Protocol: For Compounds (1) to (8) thus synthesized, solubility in cyclopentanone was measured.
smiles,measurement,value
CCCCOC(=O)CCC(=O)OCCc1ccc(/N=N/c2cc3sc(/N=N/c4ccc(N(CC)CC)cc4)nc3s2)cc1 [Compound (1)],Increase of solubility in cyclopentanone,≥ 3 times
